# Experimental data: PubChem BioAssay AID493014 (National Center for Advancing Translational Sciences (NCATS), 2011)
# Some of the results follow. Shown are side measurements of this screen, not its main read-out; they come without a call. The list favours compounds with an active or inconclusive main result. The note in brackets gives the kind of curve behind each potency; many fits are weak.
# Assay: qHTS Assay to Find Inhibitors of Chronic Active B-Cell Receptor Signaling
# Details: ABC-DLBCL IkBa-CBG/CBR reporter, luminescence ratio (green luciferase fused to IkBa over red control in TMD8 lymphoma cells), 4 h
# Outline: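 Concentration-response series (up to 46 uM) were applied to TMD8 dual-reporter cells for 4 h at 37C with doxycycline. Green/red ratio, after filter-overlap correction, defined %Activity; red signal alone was normalised to basal cells and zero luminescence.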
# [1] = measured here: CBR red luminescence, cell number
# [2] = measured here: IkBa-CBG green luminescence
Compound,AC50 [1],AC50 [2]
COc1ccc(OC)c2c(C)cc(C)nc12,"1.84 µM [rising, partial curve, poor fit]",
CCN1CCN(c2cc(C)c3cc(NC(=S)N4CC(C)CC(C)C4)ccc3n2)CC1 (stereo not given),"7.94 µM [falling, partial curve, poor fit]",
O=C(Nc1ccccc1)c1cccc(=O)o1,"35.5 µM [falling, single point]",
Cc1ccc(-n2sc3ccccc3c2=O)cc1,"13 µM [falling, partial curve]","6.51 µM [falling, single point]"
O=C(Oc1ccc(Cl)cc1)c1ccc2nccnc2c1,"5.8 µM [falling, single point]","6.51 µM [rising, partial curve, poor fit]"
O=C(NCC#CCOCc1ccccc1)c1ccccc1,"0.411 µM [rising, full curve, poor fit]",
CCOC(=O)C1=C(C)NC(SCC(=O)Nc2nc(C)cs2)=C(C#N)C1c1cccs1 (stereo not given),"20 µM [falling, partial curve, poor fit]","6.31 µM [rising, partial curve, poor fit]"
COc1ccc(N(CC(=O)O)S(=O)(=O)c2ccc(OC)c(OC)c2)cc1,"25.9 µM [rising, single point]",
CCC[N+]1(CC#CC(O)(c2ccccc2)C2CCCCC2)CCCCC1 (stereo not given),"35.5 µM [falling, single point]",
Cc1cccc(/C=N\NC(=O)c2csnn2)c1,"35.5 µM [falling, partial curve, poor fit]",
N#Cc1c(SCC(=O)Nc2ccccc2C(F)(F)F)sc2c(O)cc(=O)[nH]c12,"17.8 µM [falling, single point]",
CCOc1ccc(C(=O)NC(=S)Nc2ccc(NC(=O)C(C)C)cc2)cc1[N+](=O)[O-],"2.59 µM [rising, full curve, poor fit]",
CCOC(=O)c1ccc(NC(=O)COC(=O)Cc2csc(-c3ccccc3)n2)cc1,"7.31 µM [rising, partial curve, poor fit]",
CNC(=O)C(NC(=O)Nc1ccc(C)cc1)C(C)(C)C (stereo not given),"10 µM [rising, partial curve]",
CCN1/C(=C2\C(=O)N(C)C(=S)N2C)C=Cc2cc(OC)ccc21,"14.6 µM [rising, partial curve, poor fit]",
CCN1CCN(c2cc(C)c3cc(NC(=O)c4ccc(Br)o4)ccc3n2)CC1,"0.631 µM [falling, full curve, poor fit]",
COc1cccc(NC(=O)CSc2nnc(Cc3cccs3)n2-c2ccc(C)cc2)c1,"20.6 µM [falling, single point]","23.1 µM [rising, partial curve, poor fit]"
Clc1ccccc1OCc1nnc2n1CCCCC2,"1 µM [rising, partial curve, poor fit]",
COCCN1CC(=O)N2C(c3cccc(OC)c3)c3[nH]c4ccccc4c3C[C@H]2C1=O (stereo not given in full),"1 µM [falling, full curve]",
COc1ccccc1NC(=S)NC(=O)C1CC1,"2.59 µM [falling, full curve]",

Compound,AC50 [1],AC50 [2]
O=C(COc1ccccc1Cl)Nc1ccc(C(=O)O)cc1NC(=O)COc1ccccc1Cl,"10 µM [falling, partial curve]",
[O-][n+]1onc2c1CCC(=N/O)/C2=N\Nc1ccccc1,"10 µM [falling, partial curve, poor fit]",
COc1ccc(C(=O)N2CCc3cc(OC)c(OC)cc3C2COc2ccccc2OC)cc1 (stereo not given),"2.82 µM [rising, partial curve, poor fit]",
COc1ccc(-c2oc3cc(O)c(OC)c(O)c3c(=O)c2OC)cc1,"35.5 µM [falling, single point]",
Clc1ncccc1-c1nnn(-c2ccccc2)n1,"12.6 µM [falling, single point]",
O=C(c1ccc2c(c1)OCO2)C1CCCN(Cc2cn[nH]c2-c2ccccc2)C1 (stereo not given),"35.5 µM [falling, single point]",
COC(=O)c1c(NC(=O)/C=C/C(=O)O)sc(C)c1-c1ccc(C)cc1,"10 µM [falling, partial curve]",
CN(C)Cc1c(C(=O)N/N=C/c2ccncc2)nnn1-c1nonc1N,"11.2 µM [falling, partial curve, poor fit]",
CCc1nc(SCc2ccc(F)cc2)[nH]c(=O)c1C#N,"25.9 µM [falling, partial curve, poor fit]","29.1 µM [rising, partial curve, poor fit]"
CCOCC(=O)Nc1cc(Cl)ccc1C,"0.891 µM [rising, partial curve, poor fit]",
Cc1cc(C(=O)COC(=O)c2ccc(O)cc2O)c(C)n1-c1ccc(OC(F)F)cc1,"29.1 µM [falling, partial curve, poor fit]",
CCOC(=O)c1sc(SCC(=O)Nc2ccc(N(C)C)cc2)nc1N,"14.1 µM [falling, partial curve, poor fit]",
CCN(c1ccc(OC)cc1)S(=O)(=O)c1nnc(NC(=O)CC(C)C)s1,"0.562 µM [rising, full curve, poor fit]",
N#Cc1ccccc1CSc1ccc(-c2nc3ccccc3[nH]2)cn1,"1.84 µM [falling, partial curve, poor fit]","29.1 µM [falling, single point]"
COc1ccc(C(=O)N2CCOC2CNC(=O)C(=O)NCCc2ccccc2OC)cc1 (stereo not given),"35.5 µM [rising, partial curve, poor fit]",
COCc1c(C(=O)NC2CCCCC2)sc2cccc(F)c12,"1.64 µM [rising, full curve]",
Cc1ccc(N/C=C2/Sc3ccccc3NC2=O)cc1,"1.26 µM [falling, full curve, poor fit]",
C=C(C)c1cccc(C(C)(C)NC(=O)Nc2ccc(Cl)cn2)c1,"16.4 µM [falling, single point]",
CCOC(=O)Cc1c(C)nc2c(-c3ccc(Cl)cc3)cnn2c1C,"35.5 µM [falling, single point]",
